Results published in patent US20190083521A1, “COMBINATION THERAPY FOR TREATING CANCER” (Epizyme, Inc., priority 2014, published 2019).
“Also recorded” adds a separate entry of the source. For part of these data: The name of at least one read-out is uncertain. Some entries repeat one wording, which the source may state once for all of them. For part of these data: At least one compound was matched to its structure with a doubt left.

How the values were obtained:
MOLM-13 (MLL-AF9) cells = experiment: Combination proliferation assay with Compound A2 (CellTiter-Glo, Chou-Talalay CI); assay type: cell-based, human; conditions: 7 Day Cotreatment Model
Procedure: (§1) The acute myelogenous leukemia cell lines MV4-11 (MLL-AF4) and MOLM-13 (MLL-AF9) were obtained from American Type Culture Collection (ATCC; Rockville, Md.) and Deutsche Sammlung von Mikroorganismen and Zellkulturen (DSMZ; Braunschweig, Germany) respectively.
(§2) Studies were performed using MLL-rearranged cell lines in vitro to evaluate the anti-proliferative effect of a combination of two agents together on cell growth. Initial proliferation studies were performed to determine the IC50 of a given compound in each cell line. The cell counts were measured by ATP quantitation using the Promega Cell Titer Glo kit and luminescence values corresponded to the amount of ATP in a given well.
(§3) Compounds were evaluated for synergy in the co-treatment phase by testing the compounds in a concentration range which was bracketed around their IC50 values. The compounds were plated to a 96 well plate in a matrix format (FIG. 3) which includes increasing concentrations of each drug in the combination in a constant ratio, in addition to the effect of each compound alone in the study. Cells were seeded and grown in the log-linear phase for 3 or 7 days in the co-treatment phase. Minimum inhibition (DMSO alone) controls were used in each plate to calculate fraction affected (Fa) of a test well. DMSO concentration was kept at 0.1% v/v.
(§4) The drug combination analysis was performed utilizing the Chou-Talalay method Synergy was determined using the software package Calcusyn by Biosoft. The combination index (CI) is a quantitative term used to describe the level of synergy or antagonism in a given test system. A combination index less than one indicates synergy, and a CI greater than one indicates antagonism. Further, strong synergism is achieved when the CI value falls below 0.3.
(§5) The HP-D300 digital dispenser (Tecan) was used to dispense compounds in a combinatorial matrix. […] Cell viability was measured via ATP content using CellTiter-Glo® (Promega).
(§6) Viability was determined using CellTiter-Glo® (Promega).
Cell viability was measured via ATP content using CellTiter-Glo® (Promega).
as §2, with “Proliferation studies” for “Studies”, “MOLM-13, MV4-11 and SKM-1” for “MLL-rearranged”, “cancer cell killing” for “anti-proliferative”, “IC50 values” for “IC50”, “correspond” for “corresponded”
(§7) These studies were performed to evaluate both the combinatorial effect of compounds on cell killing and the durability of the effect by washing out one of the agents.
(§8) Compounds evaluated for synergy in the co-treatment phase were tested in a range which was bracketed around the IC50's. The compounds were plated to a 96 well plate in a matrix format which includes increasing concentrations of each drug in the combination in a constant ratio, in addition to the effect of each compound alone in the study. Cells were seeded and grown in the log-linear phase for 3 or 7 days in the cotreatment phase. Maximum and minimum inhibition (DMSO alone) controls were used in each plate to calculate fraction affected (Fa) of a test well. DMSO concentration was kept at 0.1% v/v. The drug combination analysis was performed utilizing the Chou-Talalay method. Synergy was determined using the software package Calcusyn by Biosoft. The combination index (CI) is the term used to describe the level of synergy or antagonism in a given test system. A combination index less than one indicates synergy, and a CI greater than one indicates antagonism.
(§9) The drug combination analysis was performed using the Chou-Talalay method. Graphs representing values of combination index (CI) versus Fractional effect (Fa) known as Fa-CI plots were generated and synergy was evaluated.

MLL-r cell lines = experiment: Study of dosing schedule of the combination of pinometostat with trametinib; assay type: cell-based; conditions: all schedules, no matter the order of compound addition
MV4-11 (MLL-AF4) cells = experiment: Combination proliferation assay with Compound A2 (CellTiter-Glo, Chou-Talalay CI); assay type: cell-based, human
Procedure: as §1, §2, §3, §4, §5, §6
as §2, with “Proliferation studies” for “Studies”, “MOLM-13, MV4-11 and SKM-1” for “MLL-rearranged”, “cancer cell killing” for “anti-proliferative”, “IC50 values” for “IC50”, “correspond” for “corresponded”
as §7, §8
as §9, with “evaluated. Drug synergy was statistically defined by CI values less than 1, antagonism by CI>1 and additive effect by CI equal to 1.” for “evaluated.”

[1] = system: SKM-1 (non-MLL-rearranged AML) cells; experiment: as above; assay type: cell-based, human
Procedure: Graphs representing values of combination index (CI) versus Fractional effect (Fa) known as Fa-CI plots were generated and synergy was evaluated.
as §6
MV4-11 cells were maintained in IMDM supplemented with 10% fetal bovine serum. MOLM-13 and SKM-1 cells were maintained in Roswell Park Memorial Institute medium (RPMI) supplemented with 10% fetal bovine serum. They were cultured in flasks or plates in a humidified 5% CO2 atmosphere.
as §2, with “Proliferation studies” for “Studies”, “MOLM-13, MV4-11 and SKM-1” for “MLL-rearranged”, “cancer cell killing” for “anti-proliferative”, “IC50 values” for “IC50”, “correspond” for “corresponded”
Compounds evaluated for synergy in the co-treatment phase were tested in a range which was bracketed around the IC50's. […] Synergy was determined using the software package Calcusyn by Biosoft. […]
as §9

[2] = system: MLL-rearranged leukemia xenograft; conditions: rat xenograft; Daigle et al. Blood 2013; cited from earlier work
MOLM-13 cells [3] = experiment: Flow cytometric analysis of cell cycle and Annexin V (apoptosis); assay type: cell-based, human; conditions: 14 day treatment, 156 nM Compound A2 or 63 nM Ara-C
Procedure: (§10) A Guava EasyCyte HT™ flow cytometer was used to measure DNA content, Annexin V staining and cell surface expression of CD14 and CD11b markers on Days 10 and 14.
(§11) On Day 0 MOLM-13 cells are seeded at 3,000 cells/mL. On Day 7 and Day 10 MOLM-13 cells are counted and reseeded at 50,000 cells/mL. […] On Day 10 They were redosed again. On Day 14 the experiment was terminated. Cells were sampled for CD14 and CD11b analysis on Days 7, 10 and 14.
To evaluate the fraction of cells in each cell cycle, flow cytometric analysis was performed. FACS analysis for detection of cell death by apoptosis, and cell cycle was performed.
Cells were harvested on days 7, 10 and 14 and split to allow simultaneous analysis of cell cycle and Annexin V staining. Apoptosis was determined using the Guava Nexin Assay (Millipore 4500-0450) and cells were prepared according to the manufacturer's recommendations. Samples were analyzed using the Guava EasyCyte Plus System (Millipore). Cells for cell cycle analysis were pelleted by centrifugation at 200×g for 5 minutes at 4° C., washed twice with ice cold PBS then fixed with 70% ice cold ethanol. All samples were analyzed together at end of experiment. Following fixation cells were washed with PBS and stained with the Guava cell cycle reagent (Millipore 4500-0220) for 30 minutes. Samples were analyzed using the Guava EasyCyte Plus System (Millipore).

H3K79me2 = conditions: cited from earlier work
MOLM-13 cells [4] = experiment: CD11b and CD14 differentiation marker expression by flow cytometry; assay type: cell-based, human; conditions: single agents
Procedure: as §10, §11
On day 7, 10, and 14, cells were collected for analysis. The cells were prepared by washing twice in PBS, followed by fixation in 4% formaldehyde for ten minutes at 37° C. After fixation cells were washed and blocked with blocking buffer for 10 minutes at room temperature. Cells were then incubated in presence of anti-CD14, anti-CD11b or anti-IgG antibody for 1 hour at room temperature while rotating. Cells were washed, re-suspended in PBS and 5,000 events were analyzed using ExpressPro software on the GuavaCyte Plus System.

Compound: CC(=O)Nc1cccc(-n2c(=O)n(C3CC3)c(=O)c3c(Nc4ccc(I)cc4F)n(C)c(=O)c(C)c32)c1 [Trametinib]
- Combination effect with Compound A2 (Table 4) (MOLM-13 (MLL-AF9) cells): Synergy (Drug synergy was statistically defined by CI values less than 1)
- Combination with pinometostat, dosing schedules (MLL-r cell lines): combination benefit

Compound: Nc1ncn([C@H]2C[C@H](O)[C@@H](CO)O2)c(=O)n1 [Decitabine]
- Combination effect with Compound A2 (Table 4) (MV4-11 (MLL-AF4) cells; MV4-11 (MLL-AF4), 7 Day Cotreatment Model): Synergy (Drug synergy was statistically defined by CI values less than 1)
- Combination effect with Compound A2 (MV4-11 (MLL-AF4) cells; MV4-11, 7 Day Cotreatment (Example 1)): Additive
- Combination effect with Compound A2 (Table 4) (MOLM-13 (MLL-AF9) cells): Synergy (Drug synergy was statistically defined by CI values less than 1)
- Effect of Compound A2 on antiproliferative activity of the second agent ([1]; SKM-1 non-MLL-rearranged (Example 5)): no impact

Compound: CC(C)N(C[C@H]1O[C@@H](n2cnc3c(N)ncnc32)[C@H](O)[C@@H]1O)[C@H]1C[C@@H](CCc2nc3cc(C(C)(C)C)ccc3[nH]2)C1 [Compound A2, pinometostat]
- Tumor response [2]: sustained tumor regressions
- Sub-G1 cell population, single agent (MOLM-13 cells [3]): moderate, time-dependent increase
- Additional time for H3K79me2 to return to pretreatment levels (H3K79me2; after the 3-day latency period): 4 days
- Depletion of cellular levels of H3K79me2 (H3K79me2; four days of treatment): ≥ 80%
- Differentiation markers CD11b and CD14 (MOLM-13 cells [4]): time and concentration dependent up-regulation
- Single agent antiproliferative activity ([1]; SKM-1 non-MLL-rearranged): no effect alone; also recorded: no single agent activity
